Laboratory results as given in PMC7782524.
No constants are given. Whether binding was seen depends on the method and setting. In cells and extracts the contact can be indirect.

Target: TP53^R273H (293–393)-FLAG (human) (UniProt P04637)
Assay: co-IP; lysates of H1299 cells transfected with full-length or truncated TP53^R273H-FLAG; IP with anti-FLAG, blot for endogenous BCAR1; 0.1% NP40 lysis buffer, 4 °C

- binding: no binding
B1: endogenous BCAR1 (breast cancer anti-estrogen resistance 1) (protein, UniProt P56945 1-870)
chain: MNHLNVLAKALYDNVAESPDELSFRKGDIMTVLEQDTQGLDGWWLCSLHGRQGIVPGNRLKILVGMYDKKPAGPGPGPPATPAQPQPGLHAPAPPASQYTPMLPNTYQPQPDSVYLVPTPSKAQQGLYQVPGPSPQFQSPPAKQTSTFSKQTPHHPFPSPATDLYQVPPGPGGPAQDIYQVPPSAGMGHDIYQVPPSMDTRSWEGTKPPAKVVVPTRVGQGYVYEAAQPEQDEYDIPRHLLAPGPQDIYDVPPVRGLLPSQYGQEVYDTPPMAVKGPNGRDPLLEVYDVPPSVEKGLPPSNHHAVYDVPPSVSKDVPDGPLLREETYDVPPAFAKAKPFDPARTPLVLAAPPPDSPPAEDVYDVPPPAPDLYDVPPGLRRPGPGTLYDVPRERVLPPEVADGGVVDSGVYAVPPPAEREAPAEGKRLSASSTGSTRSSQSASSLEVAGPGREPLELEVAVEALARLQQGVSATVAHLLDLAGSAGATGSWRSPSEPQEPLVQDLQAAVAAVQSAVHELLEFARSAVGNAAHTSDRALHAKLSRQLQKMEDVHQTLVAHGQALDAGRGGSGATLEDLDRLVACSRAVPEDAKQLASFLHGNASLLFRRTKATAPGPEGGGTLHPNPTDKTSSIQSRPLPSPPKFTSQDSPDGQYENSEGGWMEDYDYVHLQGKEEFEKTQKELLEKGSITRQGKSQLELQQLKQFERLEQEVSRPIDHDLANWTPAQPLAPGRTGGLGPSDRQLLLFYLEQCEANLTTLTNAVDAFFTAVATNQPPKIFVAHSKFVILSAHKLVFIGDTLSRQAKAADVRSQVTHYSNLLCDLLRGIVATTKAAALQYPSPSAAQDMVERVKELGHSTQQFRRVLGQLAAA
